Source: PubChem BioAssay AID2417 (National Center for Advancing Translational Sciences (NCATS), 2010)
The campaign covered roughly 140,000 compounds. About 4,300 (3.1%) were called active. The shares of active, inactive and inconclusive entries below differ from those in the screen.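 Rule for the calls: active = readout at or below -70, meaning at least 70% loss of cells showing the perinucleolar compartment, a nuclear body marking cancer cells; inconclusive = readout between -30 and a set limit; inactive = the rest.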

Experiment: High Content Assay for Compounds that inhibit the Assembly of the Perinucleolar Compartment;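 note: plate controls were DMSO wells for no effect and camptothecin positive control wells for full effect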
Conditions: PC3M PTB-GFP, PNC prevalence imaging, 16 h; at 10 µM; stronger effect = lower value
In short: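 Compounds are pinned in duplicate onto adhered PC3M cells stably expressing GFP-tagged PTB and incubated 16 h at 37 C. Cells are then fixed, nuclei stained with Hoechst, and PNC-positive cells counted.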
In the case of `CCOC(=O)CSc1ccc(S(=O)(=O)N2CCCCC2)cc1[N+](=O)[O-]`, the activity change (PNC), negative = inhibition is reported as inactive: 9.07%.
For `O=C(COc1cccnc1[N+](=O)[O-])NC1CCS(=O)(=O)C1` (stereo not given), the activity change (PNC), negative = inhibition was inconclusive: -33.2%.
With `CC(C)CN(C(=O)CCc1ccccc1)c1c(N)n(CC(C)C)c(=O)[nH]c1=O` the activity change (PNC), negative = inhibition was inconclusive: -37.3%.
With `COc1ccccc1NS(=O)(=O)c1cc(Cl)ccc1OC` the activity change (PNC), negative = inhibition was active: -114%.
For `Cc1ccc(-n2c(SCC(=O)Nc3ccc(N4CCOCC4)cc3)nc3ccccc3c2=O)cc1`, the activity change (PNC), negative = inhibition was inconclusive: -35.2%.
With `CC(=O)/C(=C/c1ccc(N(C)C)cc1)C(=O)c1ccccc1` the activity change (PNC), negative = inhibition was inconclusive: -56.1%.
In the case of `C=CCn1c(CNC(=O)c2ccco2)nnc1SCC(=O)N1c2ccccc2Sc2ccccc21`, the activity change (PNC), negative = inhibition is reported as inactive: -19.6%.
For `CC(C)CCN1CN(S(=O)(=O)c2cccs2)c2nc3ccccc3nc21`, the activity change (PNC), negative = inhibition was inactive: 10.4%.
For `CN(C)c1ccc(-c2ccccc2)nn1`, the activity change (PNC), negative = inhibition was inconclusive: -39.1%.
With `Cc1cc(=O)[nH]c(N2CCc3ccccc3C2)n1` the activity change (PNC), negative = inhibition was inactive: 15.2%.
With `Cc1nn(Cc2c(Cl)cccc2Cl)c(C)c1NC(=O)c1sc2ccccc2c1Cl` the activity change (PNC), negative = inhibition was inconclusive: -44.6%.
With `CC1CCCN(c2nc3c(c(=O)[nH]c(=O)n3C)n2CCSc2nc3ccccc3o2)C1` (stereo not given) the activity change (PNC), negative = inhibition was inactive: -19.6%.
With `CC(C)Cc1ccc(S(=O)(=O)N2CCN(C(=O)c3ccco3)CC2)cc1` the activity change (PNC), negative = inhibition was inconclusive: -63.5%.
In the case of `O=C(CN1CCN(C(=S)NC2CCCC2)CC1)Nc1ccc(Oc2ccccc2)cc1`, the activity change (PNC), negative = inhibition is reported as inconclusive: -42.8%.
For `CCn1c(SCc2ccc(Cl)cc2)nc2nc3c(cc2c1=O)CCCC3`, the activity change (PNC), negative = inhibition was inactive: 0.683%.
With `COc1ccc(-c2c(N)nnc3c2[nH]c2ccccc23)cc1OC` the activity change (PNC), negative = inhibition was inactive: 13%.
With `COC(=O)c1ccc(N2C(=O)CC(Sc3n[nH]c(C)n3)C2=O)cc1` (stereo not given) the activity change (PNC), negative = inhibition was inactive: 19.3%.
In the case of `Cc1nc2ncnn2c(C)c1CCC(=O)N1CC(C)CC(C)C1` (stereo not given), the activity change (PNC), negative = inhibition is reported as inactive: 33.1%.
For `CC(C)C(NS(=O)(=O)c1cccc2nsnc12)C(=O)Nc1nc2ccc(Cl)cc2s1` (stereo not given), the activity change (PNC), negative = inhibition was inactive: 4.33%.
With `COc1ccc(CCC(C)Nc2ccc(F)cc2)cc1` (stereo not given) the activity change (PNC), negative = inhibition was inactive: 20.9%.
In the case of `Clc1ccccc1-c1nc2ccccc2c2nc3ccccc3n12`, the activity change (PNC), negative = inhibition is reported as inconclusive: -37.8%.
For `N#C/C(=C/c1cccc([N+](=O)[O-])c1)c1nnc2n1CCCCC2`, the activity change (PNC), negative = inhibition was inconclusive: -63.4%.
With `COc1ccc(NC(=O)c2ccc(C#CC(C)(C)O)cc2)cc1` the activity change (PNC), negative = inhibition was inactive: -12.4%.
With `CCCS(=O)(=O)N1CCC(C(=O)NC2CCCC(C)C2C)CC1` (stereo not given) the activity change (PNC), negative = inhibition was inactive: -16.2%.
In the case of `O=S(=O)(NCc1cccnc1)c1cccc2nsnc12`, the activity change (PNC), negative = inhibition is reported as inconclusive: -67.1%.
In the case of `COc1ccc(CC(=O)Nc2nccs2)cc1OC`, the activity change (PNC), negative = inhibition is reported as inactive: 96.5%.
In the case of `CCOC(=O)C1=C(c2ccccc2)OC(N)=C(C#N)C1c1cccs1` (stereo not given), the activity change (PNC), negative = inhibition is reported as inconclusive: -39.8%.
In the case of `Cc1cccc2cc3c(N)c(C#N)sc3nc12`, the activity change (PNC), negative = inhibition is reported as inconclusive: -51.9%.
For `Oc1ccc(Br)cc1-c1nc2cnccn2c1NC1CCCCC1`, the activity change (PNC), negative = inhibition was inactive: -25.4%.
For `Cc1ccc2c(c1)NC(=O)C(CC(=O)N(C)Cc1ccccc1)O2` (stereo not given), the activity change (PNC), negative = inhibition was inconclusive: -33.5%.
For `Nc1c(S(=O)(=O)c2cccc(Cl)c2)c2nc3ccccc3nc2n1/N=C/c1ccc(O)c(O)c1`, the activity change (PNC), negative = inhibition was inactive: -3.61%.
With `ClC(=C\c1ccccc1)/C=N/N1CCN(c2ccccn2)CC1` the activity change (PNC), negative = inhibition was inconclusive: -35.2%.
In the case of `CCn1c(=O)cc(OCC(=O)N2CCCCCC2)c2ccccc21`, the activity change (PNC), negative = inhibition is reported as inconclusive: -66.2%.
For `Cc1cc(C(F)(F)F)nn1CC(=O)NNC(=S)Nc1ccc(Cl)cc1`, the activity change (PNC), negative = inhibition was inactive: -21.9%.
For `COC(=O)c1cc(NS(=O)(=O)c2ccc(N3CCC(C)CC3)c([N+](=O)[O-])c2)cc(C(=O)OC)c1`, the activity change (PNC), negative = inhibition was inactive: 2.94%.
In the case of `CCN1C(=O)C2(SC(NC(C)=O)=NN2C(C)=O)c2cc(C)cc(C)c21` (stereo not given), the activity change (PNC), negative = inhibition is reported as inconclusive: -39.7%.
With `CCOc1cc2[nH]c(=O)n(CCC(=O)NCCc3ccccc3)c(=O)c2cc1OCC` the activity change (PNC), negative = inhibition was inconclusive: -49.2%.
In the case of `COC(=O)CCC(=O)NC(=S)Nc1cc(Cl)ccc1Cl`, the activity change (PNC), negative = inhibition is reported as inactive: 20.3%.
With `Cc1cccc(C)c1Nc1nnc(SC/C(O)=C(\C#N)c2nc3ccccc3[nH]2)s1` the activity change (PNC), negative = inhibition was inconclusive: -34.8%.
With `CC(C)Cn1c(N)c(C(=O)NCCN2CCOCC2)c2nc3ccccc3nc21` the activity change (PNC), negative = inhibition was inconclusive: -35.6%.
In the case of `CC(=O)c1ccc2c3c(ccc(O)c13)CC2`, the activity change (PNC), negative = inhibition is reported as inconclusive: -39%.
For `Cc1cc2cc(C(c3nnnn3Cc3ccccc3)N3CCc4ccccc43)c(=O)[nH]c2cc1C` (stereo not given), the activity change (PNC), negative = inhibition was inactive: 7.63%.
For `COc1ccc(CNC(=O)c2cc(-n3cnnc3)ccc2Cl)cc1`, the activity change (PNC), negative = inhibition was inconclusive: -31.3%.
With `CCOC(=O)c1c(NC(=O)CSc2nnc(-c3cccnc3)o2)sc2c1CCC2` the activity change (PNC), negative = inhibition was active: -100%.
With `COc1cc(C(=O)Oc2cccc(Nc3ncnc4ccccc34)c2)cc(OC)c1OC` the activity change (PNC), negative = inhibition was inconclusive: -33.2%.
